Source: PubChem BioAssay AID504467 (National Center for Advancing Translational Sciences (NCATS), 2011)
In all, about 330,000 compounds went through this assay and about 7,700 (2.3%) were called active. This list was built around the results that the source calls inconclusive (neither active nor inactive); the mix of calls is not that of the screen. Calls follow the shape of the dose curve; as a rule, active = well fitted inhibition curve with a large enough effect; inconclusive = small, poorly fitted or top-dose-only effect, or effect the other way; inactive = flat fitted curve, though single readings scatter. A potency beside an inconclusive call is a rough fit, not a confirmed value.

Experiment: qHTS screen for small molecules that inhibit ELG1-dependent DNA repair in human embryonic kidney (HEK293T) cells expressing luciferase-tagged ELG1; also: nearly all actives have a fitted effect of over 55% in size
Conditions: HEK293T ELG1-luciferase reporter, luminescence, 16 h, DNA damage induced by 5-fluorouridine; activity change, negative = inhibition: at 46.1 µM (top of the series)
Outline: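 Reporter activity after DNA damage by 5-fluorouridine is monitored. Compound-treated cells incubate 16 hr at 37 °C, then ONE-Glo is added for 30 min before luminescence reading.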
% is scaled to controls: 0 for no effect and ±100 for the full control effect; potency is read from the fitted curve at half-maximal effect.

| Compound | Potency | activity change, negative = inhibition |
| --- | --- | --- |
| COc1ccc(CN2CCCC(CO)(Cc3ccc(F)cc3)C2)c(OC)c1OC (configuration not stated) | inconclusive: 0.116 µM [inhibitor, full curve, poor fit] | – |
| CCC(=O)c1ccc(OCC(=O)Nc2nn3cnnc3s2)cc1 | – | inactive: 9.67% |
| CC(=O)c1ccc(S(=O)(=O)NCCC(=O)NC2CCN(Cc3ccccc3)CC2)cc1 | – | inactive: 3.59% |
| NS(=O)(=O)c1ccc(CCNC(=O)Cc2cccs2)cc1 | inconclusive: 7.08 µM [activator, partial curve, poor fit] | – |
| C/C(=N\Nc1nc(Cl)c(Cl)cc1Cl)c1ccc(S(=O)(=O)NCc2ccco2)cc1 | inconclusive: 29.1 µM [inhibitor, single point] | – |
| Cc1ccc(S(=O)(=O)N(C)C)cc1NC(=O)COC(=O)Cc1cccs1 | – | inactive: 2.95% |
| Cc1ccc(C(=O)NCC(=O)Nc2ccncc2)cc1C | inconclusive: 3.66 µM [inhibitor, partial curve] | – |
| CCCCc1ccc(NC(=O)CSc2nc(=O)n(CCN(C)C)c3c2CCC3)cc1 | – | inactive: 10% |
| O=C(NCC1CCCO1)c1c(O)c2c([nH]c1=O)CCCC2 (configuration not stated) | inconclusive: 20 µM [activator, single point] | – |
| O=c1[nH]c(CN(CCc2ccccc2)S(=O)(=O)c2ccc(Cl)cc2)nc2ccccc12 | inconclusive: 25.9 µM [activator, single point] | – |
| Cc1ccc2nc(N/N=C/c3ccccc3F)nc(-c3ccccc3)c2c1 | inconclusive: 25.9 µM [inhibitor, partial curve, poor fit] | – |
| Cc1cccc(NC(=O)c2cccc(N3C(=O)CCC3=O)c2)c1 | – | inactive: 0.894% |
| COc1cc(OC)cc(-c2nnc(SCC(=O)Nc3ccc(C(=O)O)cc3)s2)c1 | – | inactive: -2.89% |
| Cc1c(C(=O)N2CCCCCC2)c(S(=O)(=O)Nc2cccc(F)c2)c(C)n1C | – | inactive: 14.2% |
| O=c1c(-c2ccc(Cl)cc2)cnc2n1CCS2 | inconclusive: 16.4 µM [activator, partial curve] | – |
| CC(=O)N1N=C(c2ccccc2)CC1c1cn(Cc2ccccc2)c2ccccc12 (configuration not stated) | inconclusive: 23.1 µM [inhibitor, single point] | – |
| CCOC(=O)c1oc2ccc(CNCCO)c(Cl)c2c1C | inconclusive: 14.6 µM [activator, partial curve] | – |
| CCOC(=O)c1sc(NC(=O)CSc2nnc(-c3ccc(OC)cc3)n2CCOC)nc1C | inconclusive: 10.3 µM [inhibitor, partial curve, poor fit] | – |
| CC(C)N(C(=O)Cn1cnc2cc([N+](=O)[O-])ccc2c1=O)C(C)C | – | inactive: -4.9% |
| CCCCn1c(N)c(N(CC)C(=O)CCNC(=O)NC23CC4CC(CC(C4)C2)C3)c(=O)[nH]c1=O | – | inactive: -3.71% |
| COCCn1c(=S)[nH]c2ccccc21 | – | inactive: 5.24% |
| CCOC(=O)C1(CC2CC2)CCN(Cc2cnc(N(C)C)s2)CC1 | – | inactive: 19.6% |
| Cc1ccc(C)c(COC(=O)c2cc(S(=O)(=O)N3CCCCC3)ccc2N2CCOCC2)c1 | inconclusive: 29.1 µM [inhibitor, single point] | – |
| Cc1cccc(C(=O)OC(C)C(=O)Nc2ccc(S(=O)(=O)Nc3ncccn3)cc2)c1C (configuration not stated) | – | inactive: 3.59% |

| Compound | Potency | activity change, negative = inhibition |
| --- | --- | --- |
| O=[N+]([O-])c1ccc(N2CCN(CCO)CC2)c2ncccc12 | inconclusive: 16.4 µM [activator, single point] | – |
| Cc1ccc2nc(NC3=NCN(Cc4ccccc4)CN3)nc(C)c2c1 | – | inactive: -2.74% |
| COc1ccc(CCNS(=O)(=O)c2ccc3c(c2)CCCC3)cc1OC | inconclusive: 3.26 µM [inhibitor, partial curve] | – |
| O=C(O)Cc1sc(N/N=C\c2ccccc2)nc1-c1ccccc1 | – | inactive: 14% |
| C[C@H](NC(=O)c1nc[nH]c1C(=O)N[C@@H](Cc1ccccc1)C(=O)OC(C)(C)C)C(=O)OC(C)(C)C | inconclusive: 32.6 µM [inhibitor, partial curve, poor fit] | – |
| Cc1[nH]nc2c1C(c1ccsc1)C(C#N)=C(N)O2 (configuration not stated) | inconclusive: 18.4 µM [activator, single point] | – |
| COc1cc(NC(=O)Cc2ccc(F)cc2)cc(OC)c1OC | inconclusive: 18.3 µM [inhibitor, single point] | – |
| S=C(Nc1ccccc1Cl)N(Cc1ccccc1)Cc1cccnc1 | – | inactive: -13.5% |
| Cc1sc2nc(SCC(=O)NCc3cccs3)[nH]c(=O)c2c1C | inconclusive: 23.1 µM [inhibitor, single point] | – |
| O=C(c1ccncc1)N1N=C(c2ccc(Br)cc2)CC1c1ccccc1O (configuration not stated) | inconclusive: 16.4 µM [inhibitor, single point] | – |
| COC(=O)c1cccc(NS(=O)(=O)c2ccc(OC)cc2)c1C | inconclusive: 20.6 µM [inhibitor, partial curve] | – |
| Cc1cc(C)n(CC(=O)N/N=C/c2cc([N+](=O)[O-])ccc2O)n1 | inconclusive: 29.1 µM [inhibitor, single point] | – |
| CCOC(=O)c1ccc(NC(=S)NCCc2ccc(OC)c(OC)c2)cc1 | inconclusive: 23.1 µM [inhibitor, single point] | – |
| Cc1ccc(S(=O)(=O)N2CCN(C(=O)COC(=O)c3cncc(Br)c3)CC2)c(C)c1 | – | inactive: -5.77% |
| CCSc1ncccc1-c1nc2ccccc2[nH]1 | inconclusive: 6.51 µM [activator, partial curve] | – |
| CCOc1ccc(C(=O)Nc2cccc(C(=O)O)c2C)cc1Cl | inconclusive: 11.6 µM [inhibitor, partial curve, poor fit] | – |
| CS/C(=C\C(=O)c1ccco1)Nc1ccccc1Cl | inconclusive: 23.1 µM [activator, partial curve, poor fit] | – |
| CCOc1ccc(NC(=O)c2ccc3snnc3c2)cc1 | inconclusive: 8.2 µM [activator, partial curve] | – |
| COc1ccc(-c2cc(C(F)(F)F)nc(SCC(=O)N(C)Cc3cnn(C)c3C)n2)cc1OC | inconclusive: 23.1 µM [inhibitor, partial curve] | – |
| CC(NC(=O)C(C)(C)C)C(c1cccs1)N1CCOCC1 (configuration not stated) | inconclusive: 1.16 µM [inhibitor, single point] | – |
| CC1CN(C(=O)COC(=O)c2cccc(S(=O)(=O)N3CCc4ccccc43)c2)CC(C)O1 (configuration not stated) | – | inactive: -19.6% |
| Cc1ccccc1Oc1cc(-n2ncc(Cl)c(Cl)c2=O)ncn1 | active: 5.8 µM | – |
| COc1cccc(C(=O)OCC(=O)Nc2sc3c(c2C(N)=O)CCC3)c1O | – | inactive: 8.54% |
| CCOC(=O)CN1NC2(CCCCC2)NC1=S | – | inactive: 11.7% |

| Compound | Potency | activity change, negative = inhibition |
| --- | --- | --- |
| CCCc1cc2c(=O)c(-c3ccccn3)coc2cc1OC | inconclusive: 11.6 µM [activator, partial curve] | – |
| Cc1ccc(OCC(=O)O/N=C(\N)Cc2ccc(Cl)cc2)cc1 | – | inactive: 1.12% |
| CC(=O)Nc1ccc(-c2nc3ccccc3o2)cc1 | inconclusive: 2.59 µM [activator, full curve] | – |
| COc1cc(OC)cc(OC(=O)C2CCN(C(=O)c3ccc(Cl)cc3)CC2)c1 | – | inactive: 10.8% |
| CCc1ccccc1OCC(=O)Nc1cccc(S(=O)(=O)NC2=NCCC2)c1 | – | inactive: 2.63% |
| CC(C)N(Cc1nccn1C)C(=O)CC1C(=O)NCCN1Cc1ccc(F)cc1 (configuration not stated) | inconclusive: 23.1 µM [activator, partial curve, poor fit] | – |
| CN(C)C(=O)CCSc1nnc(-c2ccco2)o1 | inconclusive: 9.2 µM [activator, partial curve] | – |
| O=C(CSc1nnnn1-c1ccccc1)Nc1nsc(-c2ccccc2)n1 | – | inactive: 2.12% |
| O=C(NCCCN1CCN(CCCNC(=O)c2cc([N+](=O)[O-])ccc2Cl)CC1)c1cc([N+](=O)[O-])ccc1Cl | – | inactive: 19.1% |
| CC(C)n1c(SCc2ccccc2F)nc2c1c(=O)n(C)c(=O)n2C | inconclusive: 23.1 µM [inhibitor, single point] | – |
| N/C(=N\OC(=O)c1cccs1)c1cccc([N+](=O)[O-])c1 | inconclusive: 20.6 µM [activator, partial curve] | – |
| CC1=CSC2=NC(C(F)(F)F)(C(F)(F)F)NC(=O)N12 | – | inactive: 24.2% |
| CCN(CC)C(=O)Cn1c(=O)n(Cc2ccc(F)cc2)c(=O)c2sccc21 | – | inactive: 1.42% |
| N/C(=N\OC(=O)c1cc([N+](=O)[O-])ccc1Cl)c1ccccn1 | inconclusive: 2.59 µM [activator, partial curve] | – |
| CC1C(=O)N2CCCc3cc(NS(=O)(=O)c4ccccc4)cc1c32 (configuration not stated) | – | inactive: 2.47% |
| COc1ccc(NC(=O)C2C(c3ccccc3)C2(Cl)Cl)c(OC)c1 (configuration not stated) | inconclusive: 29.1 µM [inhibitor, single point] | – |
| CC(=O)Nc1cccc(Nc2nc(-c3ccccc3)nc3ccccc23)c1 | inconclusive: 23.1 µM [inhibitor, single point] | – |
| c1ccc(COn2c(-c3ccccc3)nc3c2CCc2nonc2-3)cc1 | inconclusive: 29.1 µM [inhibitor, single point] | – |
| COc1cccc(NC(=O)CN(C)C(=O)c2cc(S(=O)(=O)N3CCCCC3)ccc2Cl)c1 | – | inactive: -4.02% |
| CCOCc1c(C(=O)Nc2ccc3nc(N4CCOCC4)sc3c2)oc2ccccc12 | active: 11.6 µM | – |
| COc1ccc2[nH]c3nc(SCC(=O)Nc4ccc5c(c4)OCO5)nnc3c2c1 | inconclusive: 29.1 µM [activator, single point] | – |
| CCOC(=O)c1ccc(NC(=O)c2nc[nH]c2C(=O)NCCCNC(=O)c2[nH]cnc2C(=O)Nc2ccc(C(=O)OCC)cc2)cc1 | inconclusive: 4.11 µM [inhibitor, single point] | – |
| COc1cccc(NC(=O)c2cc([N+](=O)[O-])ccc2NC(=O)CNCC2CCCO2)c1 (configuration not stated) | active: 9.2 µM | – |
| CC1CCC(C(C)C)C(OC(=O)Cn2c(-c3ccccc3)[n+](C)c3ccccc32)C1 (configuration not stated) | active: 6.51 µM | – |

Looked up above.
Entry of O=C(CSc1nnnn1-c1ccccc1)Nc1nsc(-c2ccccc2)n1 under activity change, negative = inhibition: inactive: 2.12%
Entry of N/C(=N\OC(=O)c1cccs1)c1cccc([N+](=O)[O-])c1 under Potency: inconclusive: 20.6 µM [activator, partial curve]
Entry of COc1cccc(NC(=O)CN(C)C(=O)c2cc(S(=O)(=O)N3CCCCC3)ccc2Cl)c1 under activity change, negative = inhibition: inactive: -4.02%
